{"sequences": {"note": "Protein sequences, listed by entry. Tags and fused reporters are not part of them. Lines headed by an entry give the natural chain unless they say otherwise; changes in a name come on top.", "UniProt Q9Y5W8": "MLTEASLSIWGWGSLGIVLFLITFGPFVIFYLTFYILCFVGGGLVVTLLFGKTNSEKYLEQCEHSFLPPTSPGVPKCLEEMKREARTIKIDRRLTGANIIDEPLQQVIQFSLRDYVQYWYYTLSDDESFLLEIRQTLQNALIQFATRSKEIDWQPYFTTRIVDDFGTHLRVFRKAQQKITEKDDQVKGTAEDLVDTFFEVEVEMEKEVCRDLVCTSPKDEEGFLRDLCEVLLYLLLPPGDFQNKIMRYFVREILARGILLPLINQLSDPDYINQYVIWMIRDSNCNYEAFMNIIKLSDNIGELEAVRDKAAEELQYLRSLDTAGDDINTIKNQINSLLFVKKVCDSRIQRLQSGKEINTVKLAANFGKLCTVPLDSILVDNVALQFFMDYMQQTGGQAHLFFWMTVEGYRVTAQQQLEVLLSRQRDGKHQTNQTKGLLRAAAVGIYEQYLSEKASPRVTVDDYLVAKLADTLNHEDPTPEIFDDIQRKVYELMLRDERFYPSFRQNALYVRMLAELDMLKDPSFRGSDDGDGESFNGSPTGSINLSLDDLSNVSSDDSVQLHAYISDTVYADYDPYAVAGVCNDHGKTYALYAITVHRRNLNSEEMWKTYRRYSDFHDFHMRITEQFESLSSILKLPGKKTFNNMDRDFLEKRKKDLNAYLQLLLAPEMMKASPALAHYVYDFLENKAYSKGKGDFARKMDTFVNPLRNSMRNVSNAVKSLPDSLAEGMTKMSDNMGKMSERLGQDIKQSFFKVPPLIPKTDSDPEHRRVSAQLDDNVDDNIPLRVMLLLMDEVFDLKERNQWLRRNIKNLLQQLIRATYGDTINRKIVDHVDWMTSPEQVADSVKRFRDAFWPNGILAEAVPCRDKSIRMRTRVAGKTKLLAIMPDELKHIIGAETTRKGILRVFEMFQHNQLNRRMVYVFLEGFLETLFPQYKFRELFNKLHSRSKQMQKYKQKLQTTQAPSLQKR", "UniProt O60271": "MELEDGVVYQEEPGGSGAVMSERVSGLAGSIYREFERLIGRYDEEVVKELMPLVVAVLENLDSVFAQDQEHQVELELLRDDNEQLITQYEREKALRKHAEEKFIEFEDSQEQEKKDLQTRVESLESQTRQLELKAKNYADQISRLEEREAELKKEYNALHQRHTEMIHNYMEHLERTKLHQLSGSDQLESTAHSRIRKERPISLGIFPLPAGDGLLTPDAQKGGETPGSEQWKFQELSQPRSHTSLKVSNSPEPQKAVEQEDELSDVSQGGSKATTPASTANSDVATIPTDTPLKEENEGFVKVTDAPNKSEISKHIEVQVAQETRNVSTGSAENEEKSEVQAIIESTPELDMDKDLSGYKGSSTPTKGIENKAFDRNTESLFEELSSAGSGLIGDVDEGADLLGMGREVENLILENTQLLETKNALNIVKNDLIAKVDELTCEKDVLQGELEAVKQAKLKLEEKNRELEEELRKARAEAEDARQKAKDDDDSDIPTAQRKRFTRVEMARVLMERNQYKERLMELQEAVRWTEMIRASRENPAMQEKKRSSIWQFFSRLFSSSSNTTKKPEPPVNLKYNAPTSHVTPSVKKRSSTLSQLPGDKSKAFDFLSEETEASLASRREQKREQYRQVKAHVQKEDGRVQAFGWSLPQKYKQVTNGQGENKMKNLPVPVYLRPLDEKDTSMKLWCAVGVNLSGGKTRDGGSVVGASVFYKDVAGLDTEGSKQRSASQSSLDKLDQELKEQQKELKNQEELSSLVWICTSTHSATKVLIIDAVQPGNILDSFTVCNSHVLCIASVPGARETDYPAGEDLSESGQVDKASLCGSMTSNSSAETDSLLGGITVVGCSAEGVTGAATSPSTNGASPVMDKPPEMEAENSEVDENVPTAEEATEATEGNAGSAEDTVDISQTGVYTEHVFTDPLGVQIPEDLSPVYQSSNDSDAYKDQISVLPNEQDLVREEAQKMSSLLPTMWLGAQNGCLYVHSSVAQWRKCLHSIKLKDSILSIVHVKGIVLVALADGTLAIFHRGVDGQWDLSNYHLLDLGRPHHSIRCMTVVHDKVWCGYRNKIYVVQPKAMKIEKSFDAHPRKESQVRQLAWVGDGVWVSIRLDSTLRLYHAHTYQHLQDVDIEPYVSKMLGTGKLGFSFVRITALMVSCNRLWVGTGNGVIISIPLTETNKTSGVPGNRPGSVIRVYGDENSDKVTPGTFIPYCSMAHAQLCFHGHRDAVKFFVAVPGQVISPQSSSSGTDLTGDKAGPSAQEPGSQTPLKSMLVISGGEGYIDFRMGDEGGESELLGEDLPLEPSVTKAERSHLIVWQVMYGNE", "UniProt Q9Y2E8": "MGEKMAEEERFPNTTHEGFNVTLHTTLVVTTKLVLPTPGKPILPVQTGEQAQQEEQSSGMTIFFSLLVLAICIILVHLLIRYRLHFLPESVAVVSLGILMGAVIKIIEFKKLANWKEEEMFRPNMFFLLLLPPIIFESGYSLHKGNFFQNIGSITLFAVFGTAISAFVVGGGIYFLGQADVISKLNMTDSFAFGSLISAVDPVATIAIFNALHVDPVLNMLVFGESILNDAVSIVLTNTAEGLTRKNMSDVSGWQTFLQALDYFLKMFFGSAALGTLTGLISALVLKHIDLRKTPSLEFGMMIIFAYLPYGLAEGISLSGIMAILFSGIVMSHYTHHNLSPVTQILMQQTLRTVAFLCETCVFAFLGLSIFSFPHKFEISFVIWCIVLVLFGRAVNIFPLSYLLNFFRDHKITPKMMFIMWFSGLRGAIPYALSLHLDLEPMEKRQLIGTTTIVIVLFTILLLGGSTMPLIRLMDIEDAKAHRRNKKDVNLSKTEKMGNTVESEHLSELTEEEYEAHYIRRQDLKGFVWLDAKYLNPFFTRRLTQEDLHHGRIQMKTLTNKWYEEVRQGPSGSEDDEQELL", "UniProt P08294": "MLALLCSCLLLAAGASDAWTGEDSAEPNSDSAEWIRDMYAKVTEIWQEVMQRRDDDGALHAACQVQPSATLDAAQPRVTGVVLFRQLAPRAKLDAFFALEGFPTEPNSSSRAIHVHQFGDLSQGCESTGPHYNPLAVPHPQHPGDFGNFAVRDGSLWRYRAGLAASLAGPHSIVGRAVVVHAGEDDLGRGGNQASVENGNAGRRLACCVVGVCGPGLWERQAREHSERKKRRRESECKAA", "UniProt Q9Y5W7": "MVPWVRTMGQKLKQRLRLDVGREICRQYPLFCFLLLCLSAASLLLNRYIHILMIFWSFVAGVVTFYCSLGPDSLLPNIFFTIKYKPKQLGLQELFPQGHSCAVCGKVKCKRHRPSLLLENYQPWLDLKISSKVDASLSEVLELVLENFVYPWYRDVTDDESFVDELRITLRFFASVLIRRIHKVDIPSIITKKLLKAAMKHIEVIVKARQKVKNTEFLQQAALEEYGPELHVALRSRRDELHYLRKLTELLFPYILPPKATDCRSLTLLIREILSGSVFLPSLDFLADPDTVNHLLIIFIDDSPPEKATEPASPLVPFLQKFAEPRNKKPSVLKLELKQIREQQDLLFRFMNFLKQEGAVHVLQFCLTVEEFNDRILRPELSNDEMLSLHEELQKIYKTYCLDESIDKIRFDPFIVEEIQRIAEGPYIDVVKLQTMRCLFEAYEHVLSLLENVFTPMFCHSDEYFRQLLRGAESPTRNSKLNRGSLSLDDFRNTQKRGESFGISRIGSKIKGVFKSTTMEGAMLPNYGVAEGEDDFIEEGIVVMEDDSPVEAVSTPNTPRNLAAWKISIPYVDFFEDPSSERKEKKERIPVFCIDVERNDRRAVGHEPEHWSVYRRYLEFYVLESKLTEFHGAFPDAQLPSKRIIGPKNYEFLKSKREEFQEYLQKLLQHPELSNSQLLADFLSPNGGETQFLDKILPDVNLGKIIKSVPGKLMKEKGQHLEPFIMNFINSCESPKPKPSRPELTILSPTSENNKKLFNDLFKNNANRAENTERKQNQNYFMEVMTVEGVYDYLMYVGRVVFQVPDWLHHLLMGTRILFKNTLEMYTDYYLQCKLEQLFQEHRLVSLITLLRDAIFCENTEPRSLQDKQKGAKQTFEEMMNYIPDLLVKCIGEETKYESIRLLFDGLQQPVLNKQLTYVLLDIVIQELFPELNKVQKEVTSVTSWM", "UniProt P0DJ93": "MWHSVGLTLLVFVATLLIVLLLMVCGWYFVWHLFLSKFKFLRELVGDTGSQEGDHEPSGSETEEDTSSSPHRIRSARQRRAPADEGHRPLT", "UniProt Q96GM5, whole entry, looked up": "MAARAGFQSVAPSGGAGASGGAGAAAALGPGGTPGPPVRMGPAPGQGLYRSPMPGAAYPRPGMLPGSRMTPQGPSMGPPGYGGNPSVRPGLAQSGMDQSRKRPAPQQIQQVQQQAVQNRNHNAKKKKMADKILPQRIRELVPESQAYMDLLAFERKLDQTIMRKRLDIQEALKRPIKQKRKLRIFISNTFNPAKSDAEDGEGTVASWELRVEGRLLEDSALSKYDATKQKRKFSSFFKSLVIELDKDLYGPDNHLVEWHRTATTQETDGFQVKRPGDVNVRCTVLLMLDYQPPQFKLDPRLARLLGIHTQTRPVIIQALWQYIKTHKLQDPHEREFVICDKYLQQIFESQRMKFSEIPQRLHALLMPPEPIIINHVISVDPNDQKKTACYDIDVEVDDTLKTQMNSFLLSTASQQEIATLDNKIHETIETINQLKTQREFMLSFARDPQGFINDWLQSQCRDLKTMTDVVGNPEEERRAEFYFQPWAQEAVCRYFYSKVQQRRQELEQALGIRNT", "UniProt Q8WVI0": "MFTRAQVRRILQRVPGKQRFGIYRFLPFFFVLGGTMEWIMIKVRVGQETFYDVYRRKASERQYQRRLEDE", "UniProt Q53HV7": "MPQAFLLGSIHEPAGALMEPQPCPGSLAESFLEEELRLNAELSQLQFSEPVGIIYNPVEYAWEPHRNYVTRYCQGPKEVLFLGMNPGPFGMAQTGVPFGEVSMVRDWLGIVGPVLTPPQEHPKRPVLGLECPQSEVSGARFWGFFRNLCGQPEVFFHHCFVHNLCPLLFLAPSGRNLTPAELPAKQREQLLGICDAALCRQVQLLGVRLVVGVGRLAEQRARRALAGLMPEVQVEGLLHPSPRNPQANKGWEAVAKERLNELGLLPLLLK", "UniProt Q9NZC9": "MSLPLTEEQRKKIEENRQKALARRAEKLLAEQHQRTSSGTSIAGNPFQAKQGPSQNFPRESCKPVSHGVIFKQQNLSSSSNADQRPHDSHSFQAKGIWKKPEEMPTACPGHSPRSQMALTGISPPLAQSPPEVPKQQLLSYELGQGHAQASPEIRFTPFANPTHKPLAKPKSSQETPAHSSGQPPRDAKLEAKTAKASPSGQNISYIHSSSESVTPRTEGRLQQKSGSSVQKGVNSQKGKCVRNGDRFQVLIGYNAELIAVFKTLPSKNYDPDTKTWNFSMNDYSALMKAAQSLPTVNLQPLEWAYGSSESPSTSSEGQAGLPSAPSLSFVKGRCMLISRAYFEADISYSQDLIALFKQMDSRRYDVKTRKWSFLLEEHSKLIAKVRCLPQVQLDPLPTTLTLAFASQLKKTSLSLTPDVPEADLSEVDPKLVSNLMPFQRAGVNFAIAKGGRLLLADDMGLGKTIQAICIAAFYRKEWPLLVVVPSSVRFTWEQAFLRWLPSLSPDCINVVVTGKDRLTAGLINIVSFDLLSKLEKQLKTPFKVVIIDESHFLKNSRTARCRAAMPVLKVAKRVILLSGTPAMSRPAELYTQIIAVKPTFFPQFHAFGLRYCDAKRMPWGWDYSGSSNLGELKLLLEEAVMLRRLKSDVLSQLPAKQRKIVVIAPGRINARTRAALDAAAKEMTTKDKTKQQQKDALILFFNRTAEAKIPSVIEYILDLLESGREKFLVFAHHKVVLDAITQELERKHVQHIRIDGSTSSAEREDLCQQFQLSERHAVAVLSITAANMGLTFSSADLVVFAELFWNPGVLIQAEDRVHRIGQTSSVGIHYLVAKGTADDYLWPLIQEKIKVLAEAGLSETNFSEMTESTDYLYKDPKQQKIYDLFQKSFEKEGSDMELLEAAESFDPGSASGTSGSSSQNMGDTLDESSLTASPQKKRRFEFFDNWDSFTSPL", "UniProt P17405": "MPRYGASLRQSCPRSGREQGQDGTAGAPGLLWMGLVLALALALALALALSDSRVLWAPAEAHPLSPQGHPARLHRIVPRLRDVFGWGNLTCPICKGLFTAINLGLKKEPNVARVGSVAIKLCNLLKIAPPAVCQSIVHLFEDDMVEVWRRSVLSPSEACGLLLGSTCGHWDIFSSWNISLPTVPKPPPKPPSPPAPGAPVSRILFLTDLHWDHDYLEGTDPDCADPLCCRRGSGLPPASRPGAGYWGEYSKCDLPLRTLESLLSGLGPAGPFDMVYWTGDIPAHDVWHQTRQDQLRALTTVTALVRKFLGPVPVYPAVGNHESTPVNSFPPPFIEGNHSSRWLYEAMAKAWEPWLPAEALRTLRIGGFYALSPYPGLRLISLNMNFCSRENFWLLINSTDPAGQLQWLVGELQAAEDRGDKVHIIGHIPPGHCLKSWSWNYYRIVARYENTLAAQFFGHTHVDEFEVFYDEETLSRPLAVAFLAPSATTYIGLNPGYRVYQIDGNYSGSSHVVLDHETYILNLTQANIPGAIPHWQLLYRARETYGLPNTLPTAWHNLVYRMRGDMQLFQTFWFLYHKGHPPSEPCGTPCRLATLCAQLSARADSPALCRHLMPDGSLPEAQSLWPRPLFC"}, "source": "the supplement of paper PMC10849652", "note": "This is one part of the list."}
{"compound": "FC(F)(F)c1ccc(/C=C/c2nc(COc3ccc(CCCCn4ccnn4)cc3)co2)cc1 [mubritinib]", "assay": "log2 fold change, soluble protein after heating vs DMSO (PISA); higher = thermal stabilisation; K562 cells, 10 uM, 30 min; active = over 0.2 and 3.5 SD of the protein, either way, in both replicates (recomputed)", "method_in_brief": "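K562 cells at 2×10^6 cells/mL were treated for 30 min with 10 μM compound, and aliquots were heated for 3 min over 48°C-58°C before pooling. Extraction used PBS with 0.5% NP-40 at 4°C, and soluble protein was the supernatant after 21,000xg for 90 min, measured by TMTpro 16plex LC-MS/MS with channel sums equalised. Thermal stability values, relative to control samples and from duplicates, are log2 fold changes.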"}
{"target": "SNX13 (UniProt Q9Y5W8)", "log2 fold change": "inactive: 0.053"}
{"target": "SMG5 (UniProt Q9UPR3)", "log2 fold change": "inactive: -0.108"}
{"target": "SPAG9 isoform 4 (UniProt O60271)", "log2 fold change": "inactive: 0.074"}
{"target": "SOS1 (UniProt Q07889)", "log2 fold change": "inactive: -0.12"}
{"target": "SOX6 (UniProt P35712)", "log2 fold change": "inactive: 0.097"}
{"target": "SNX25 (UniProt Q9H3E2)", "log2 fold change": "inactive: -0.095"}
{"target": "SLC9A8 isoform 2 (UniProt Q9Y2E8)", "log2 fold change": "inactive: -0.04"}
{"target": "SOD3 (UniProt P08294)", "log2 fold change": "inactive: 0.151"}
{"target": "SNAP23 isoform 2 (UniProt O00161)", "log2 fold change": "inactive: 0.036"}
{"target": "SNX14 (UniProt Q9Y5W7)", "log2 fold change": "inactive: -0.128"}
{"target": "SMIM13 (UniProt P0DJ93)", "log2 fold change": "inactive: 0.051"}
{"target": "SMARCD2 (UniProt Q92925)", "log2 fold change": "inactive: -0.025"}
{"target": "SMAGP (UniProt Q0VAQ4)", "log2 fold change": "inactive: -0.048"}
{"target": "SMARCD1 (UniProt Q96GM5)", "log2 fold change": "inactive: 0.146"}
{"target": "SMIM4 (UniProt Q8WVI0)", "log2 fold change": "inactive: -0.006"}
{"target": "SMUG1 (UniProt Q53HV7)", "log2 fold change": "inactive: -0.042"}
{"target": "SOX5 (UniProt P35711)", "log2 fold change": "inactive: 0.064"}
{"target": "SMARCAL1 (UniProt Q9NZC9)", "log2 fold change": "inactive: -0.257"}
{"target": "SP6 (UniProt Q3SY56)", "log2 fold change": "inactive: -0.118"}
{"target": "SMPD1 (UniProt P17405)", "log2 fold change": "inactive: 0.09"}
